Laboratory results from publication PMC7808939.
Results are given in words; binding and its absence hold for the method and conditions named. For some of these results: Binding seen in cells or lysates may run through a third protein. Some binding calls cover weakened binding; strength is not graded here. For some of these results: Tags and fused reporters may be left off the sequences shown. Each block holds one substance with its values, some of them ahead of it.

By UniProt entry, the sequences of proteins in these tests, tags left out. Where a name states a change or a piece, a line headed by the entry shows the natural chain unless it says otherwise.
UniProt P25322: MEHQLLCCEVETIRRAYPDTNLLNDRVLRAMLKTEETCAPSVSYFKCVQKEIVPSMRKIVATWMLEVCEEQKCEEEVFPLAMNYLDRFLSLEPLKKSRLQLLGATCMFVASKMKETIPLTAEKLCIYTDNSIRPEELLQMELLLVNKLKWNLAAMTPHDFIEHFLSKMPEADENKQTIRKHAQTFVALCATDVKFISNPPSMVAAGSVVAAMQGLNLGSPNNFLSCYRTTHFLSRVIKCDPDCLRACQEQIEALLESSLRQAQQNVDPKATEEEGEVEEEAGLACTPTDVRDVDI
UniProt P30280: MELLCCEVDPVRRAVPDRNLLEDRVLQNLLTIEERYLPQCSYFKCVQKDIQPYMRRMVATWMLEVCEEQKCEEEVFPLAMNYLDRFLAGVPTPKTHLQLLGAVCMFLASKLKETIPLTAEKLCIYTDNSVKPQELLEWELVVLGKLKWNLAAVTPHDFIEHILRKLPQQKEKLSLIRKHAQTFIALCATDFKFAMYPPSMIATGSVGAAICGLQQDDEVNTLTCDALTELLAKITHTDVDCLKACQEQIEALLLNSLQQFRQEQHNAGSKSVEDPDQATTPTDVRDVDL
UniProt Q9WTX6: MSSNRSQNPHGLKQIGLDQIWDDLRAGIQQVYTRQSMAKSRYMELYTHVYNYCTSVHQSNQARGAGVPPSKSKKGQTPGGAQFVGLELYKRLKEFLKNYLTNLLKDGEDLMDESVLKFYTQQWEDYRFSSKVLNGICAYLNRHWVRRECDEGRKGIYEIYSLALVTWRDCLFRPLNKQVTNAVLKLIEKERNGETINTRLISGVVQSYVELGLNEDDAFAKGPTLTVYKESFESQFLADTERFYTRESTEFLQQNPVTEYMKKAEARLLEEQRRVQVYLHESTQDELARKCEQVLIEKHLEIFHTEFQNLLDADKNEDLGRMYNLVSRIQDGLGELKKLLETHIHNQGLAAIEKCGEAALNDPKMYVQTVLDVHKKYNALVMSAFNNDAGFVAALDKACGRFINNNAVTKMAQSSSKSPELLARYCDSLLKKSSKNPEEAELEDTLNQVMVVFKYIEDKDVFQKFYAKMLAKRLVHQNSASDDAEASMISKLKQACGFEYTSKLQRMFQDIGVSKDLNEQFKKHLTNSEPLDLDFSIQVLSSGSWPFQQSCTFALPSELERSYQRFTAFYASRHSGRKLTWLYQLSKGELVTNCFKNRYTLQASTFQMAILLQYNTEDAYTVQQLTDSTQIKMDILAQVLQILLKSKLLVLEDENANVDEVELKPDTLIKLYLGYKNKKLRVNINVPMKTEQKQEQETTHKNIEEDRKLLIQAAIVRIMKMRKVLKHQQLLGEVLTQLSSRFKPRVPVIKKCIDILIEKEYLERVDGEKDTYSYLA
UniProt P30281: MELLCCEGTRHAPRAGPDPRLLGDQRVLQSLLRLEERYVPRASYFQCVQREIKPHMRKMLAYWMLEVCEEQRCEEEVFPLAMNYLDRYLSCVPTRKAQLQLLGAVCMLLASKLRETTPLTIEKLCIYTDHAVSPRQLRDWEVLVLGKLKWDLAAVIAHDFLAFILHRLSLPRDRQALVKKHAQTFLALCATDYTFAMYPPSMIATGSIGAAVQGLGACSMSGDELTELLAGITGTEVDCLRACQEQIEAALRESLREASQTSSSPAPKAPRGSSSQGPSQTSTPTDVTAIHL

Experiments:
[1] = biological target: T1, endogenous Fbxl8 (NIH3T3 cells) (mouse (endogenous in NIH3T3)) (UniProt Q8CIG9); assay: co-IP; endogenous proteins, NIH3T3 lysate, MG132 (20 μM) for 4 h; normal IgG or an antibody specific for Fbxl8; blot for cyclin D3, D2, D1
T1 sequence: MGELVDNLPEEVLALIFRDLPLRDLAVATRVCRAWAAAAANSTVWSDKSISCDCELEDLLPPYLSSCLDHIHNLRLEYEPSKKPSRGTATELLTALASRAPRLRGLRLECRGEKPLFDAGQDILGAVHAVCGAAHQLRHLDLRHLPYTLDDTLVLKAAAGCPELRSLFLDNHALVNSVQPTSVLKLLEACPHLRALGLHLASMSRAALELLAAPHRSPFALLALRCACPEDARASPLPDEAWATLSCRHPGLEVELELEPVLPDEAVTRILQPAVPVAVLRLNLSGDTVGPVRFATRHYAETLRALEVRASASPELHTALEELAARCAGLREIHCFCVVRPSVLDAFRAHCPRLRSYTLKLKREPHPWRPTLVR

[2] = biological target: T2, Flag-Fbxl8 (Sf9, purified) (UniProt Q8CIG9); assay: pull-down; in vitro binding: Flag-Fbxl8 or Flag-Fbxo4 purified on anti Flag beads from sf9, incubated 4 h with cyclin D3/CDK4 or cyclin D2/CDK4 purified from sf9; washed 5 times with Tween20 lysis buffer (50 mM HEPES pH 8.0, 150 mM NaCl, 0.1% Tween 20); western blot; both purified
T2 sequence: T1 sequence

[3] = biological target: T3, Flag-Fbxl8 (NIH3T3) (UniProt Q8CIG9); assay: co-IP; NIH3T3 cells transfected with Flag-Fbxl8, MG132 (20 μM) for 4 h; anti-Flag beads; blot for Cul1, Skp1, Rbx1
T3 sequence: T1 sequence

[4] = biological target: T4, endogenous Fbxl8 (Raji cells) (human (endogenous in Raji)) (UniProt Q96CD0); assay: co-IP; endogenous proteins, Raji Burkitt's lymphoma cells (Figs. S1D-E)
T4 sequence: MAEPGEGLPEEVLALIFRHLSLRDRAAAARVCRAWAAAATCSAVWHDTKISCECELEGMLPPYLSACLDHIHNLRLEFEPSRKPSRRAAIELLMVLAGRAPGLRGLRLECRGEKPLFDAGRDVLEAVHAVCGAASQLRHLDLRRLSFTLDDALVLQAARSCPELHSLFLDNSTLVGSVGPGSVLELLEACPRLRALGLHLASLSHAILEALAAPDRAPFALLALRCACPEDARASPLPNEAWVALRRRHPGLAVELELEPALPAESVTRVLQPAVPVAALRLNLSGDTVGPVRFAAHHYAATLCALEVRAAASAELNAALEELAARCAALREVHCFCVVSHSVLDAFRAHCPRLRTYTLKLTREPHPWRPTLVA

binding [1]: no binding
Substance: endogenous cyclin D1 (NIH3T3 cells) (from UniProt P25322 1-295)

binding [2]: no binding
Substance: cyclin D2/CDK4 (Sf9, purified) (from UniProt P30280 1-289; P30285 1-303) (complex)

binding [3]: binds
Substance: Cul1 (NIH3T3 cells) (from UniProt Q9WTX6 1-776)

binding [4]: binds
Substance: endogenous cyclin D3 (Raji cells) (from UniProt P30281 1-292)
